The text below walks through data of PubChem BioAssay (NCATS).

Amino acid sequences for entries named in this document (tags omitted). A change or cut given only in a name is not applied to a line headed by its entry.
UniProt P50135: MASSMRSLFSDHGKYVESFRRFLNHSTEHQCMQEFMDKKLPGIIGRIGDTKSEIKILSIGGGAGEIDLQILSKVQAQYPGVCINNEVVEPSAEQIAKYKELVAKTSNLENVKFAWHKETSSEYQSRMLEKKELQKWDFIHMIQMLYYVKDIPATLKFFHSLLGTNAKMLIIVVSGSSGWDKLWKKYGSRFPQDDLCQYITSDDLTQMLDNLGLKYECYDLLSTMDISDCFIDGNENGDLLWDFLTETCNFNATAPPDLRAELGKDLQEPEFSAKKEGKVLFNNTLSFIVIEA

Molecules are shown by their SMILES. The list shows a part of the results. The main result of the screen is listed elsewhere. These columns were measured beside it and carry no call. For part of these data: Most of these compounds were active or inconclusive in the main read-out, so they are no random draw. For part of these data: Words in brackets tell the shape of the fitted curve; partial curves, single points and poor fits give uncertain potencies.

Experiment [1] is described as follows: Validation of Assay for Modulators of Lamin A Splicing (AID 1459). The note with it: Lamin A splicing dual RFP/GFP fluorescence reporter, ratio. In short, it runs like this: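 Splicing correction is reported by an EGFP-containing lamin A minigene in stably transfected S3 HeLa cells, while DsRed2 controls for viability and nonspecific signal. Cells are exposed to compounds for 48 hrs before the GFP over RFP ratio is taken.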

A short description of experiment [2]: qHTS Assay for Lipid Storage Modulators (AID 1519). Conditions: Drosophila S3 cells, BODIPY lipid droplet/cell ratio, laser cytometry, cells loaded with oleic acid. In short, it runs like this:
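Cells seeded at 5,000 per well were treated with compounds over a concentration series and loaded with oleic acid (400 uM, as added). Lipid droplet fluorescence (488 nm excitation, 500-530 nm channel) was read by laser-scanning cytometry and normalized to 20 uM Triacsin C.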
Background: Quantitative high-throughput screening tests each substance at several concentrations.

Experiment [3] can be described thus: qHTS Assay for Modulators of Human Peripheral Myelin Protein 22 (PMP22) Expression/Activity (AID 1967). The note with it: Cell-based PMP22 reporter, dual-color luciferase ratio. In short, it runs like this: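 Quantitative HTS in a mouse Schwann cell line expressing dual click beetle luciferases: Pmp22 promoter (green) and control EF-alpha promoter (red). After 24h treatment, corrected green/red signal ratio gave %Activity relative to untreated cells.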

The nature of experiment [4]: qHTS Validation Assay to Find Inhibitors of Chronic Active B-Cell Receptor Signaling (AID 485345). The note with it: ABC-DLBCL cells, chronic BCR signaling reporter. An outline of the steps:
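TMD8 ABC-DLBCL cells with dox-inducible green luciferase–IκBα fusion and red native luciferase; compounds 46 uM–3 nM, 4 h at 37C with doxycycline in 0.5% FBS IMDM. Green/red ratio normalized to basal and 10 uM MG-132.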

The nature of experiment [5]: qHTS drug screen for cell cycle checkpoint inhibitors in PARPi-resistant BRCA-mutant ovarian cancer cell lines. (AID 1963452). Conditions: PEO1/OlaR viability, CellTiter-Glo luminescence, 96 h. An outline of the steps: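 PEO1, PEO4 and PEO1/OlaR ovarian cancer cells, 600 per well, exposed 96 h at 37C to a dilution series. Viability read by CellTiter-Glo luminescence, normalized to DMSO and empty wells; activity summarized as Z-AUC.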

Experiment [6] is described as follows: qHTS for identification of novel therapeutic agents for treatment of microphthalmiaassociated transcription factor (MiT) renal cell carcinoma (RCC) (AID 1963991). Conditions: CellTiter-Glo, 48 h; for z-score: stronger effect = lower value. An outline of the steps:
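Three TFE3-fusion RCC lines (UOK109, UOK124, UOK145), 500 cells/well in complete medium, were treated with MIPE 4.0 compounds for 48 hours at 37 C. Viability was by CellTiter-Glo luminescence, normalized to DMSO (100%) and empty wells (0%); curves fitted over 11 concentrations.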

Experiment [7] concerns the target Histamine N-methyltransferase (Homo sapiens) (UniProt P50135). The experiment can be described thus: Confirmatory Screen for Target Class Profiling of Small Molecule Inhibitors of Methyltransferases (AID 1745852). Conditions: MTase-Glo luminescence, SAH detection, recombinant enzyme; measured here: HNMT inhibition potency.
[8] abbreviates: measured here: cell count channel max response.
The mark [9] stands for this setting: measured here: lipid channel max response.
[10] abbreviates: measured here: green reporter channel AC50, mouse Pmp22 promoter in mouse Schwann cells.
[11] abbreviates: measured here: red reporter channel AC50, EF-alpha promoter control reporter in MSC80 mouse Schwann cells.
The mark [12] stands for this setting: TFE3-RCC UOK109 viability, measured here: UOK109 Z-AUC.
Setting [13] is: TFE3-RCC viability, measured here: UOK124 Z-AUC.
The mark [14] stands for this setting: TFE3-RCC viability, measured here: UOK124 cell viability.
[15] abbreviates: TFE3-RCC viability, measured here: UOK145 Z-AUC.
Where [16] appears, read: TFE3-RCC viability, measured here: UOK145 cell viability.

The term AC50 denotes the midpoint of the concentration-response curve, whichever way the signal moves. As a reminder, the IC50 is the concentration that gives 50% inhibition.

For the compound `CC1(C)CCC2=C(O1)c1ccccc1C(=O)C2=O`, the half-maximal activity concentration (AC50) in experiment [1] (measured here: GFP channel) was 25.1 µM [falling, partial curve]; in experiment [1] (measured here: RFP channel), 25.1 µM [falling, partial curve]; in experiment [3] (setting [10]), 30.1 µM [falling, full curve]; in experiment [3] (setting [11]), 37.9 µM [falling, full curve]; in experiment [4] (measured here: CBG/CBR ratio read-out) it was 14.6 µM [falling, partial curve]; in experiment [4] (measured here: CBR control luciferase (viability counter)), 29.1 µM [falling, single point]. Besides, the AC50 is 19.5 µM [falling, single point] in experiment [5] (measured here: PEO1 parental viability); 15.5 µM [falling, single point] in experiment [5] (measured here: PEO4 viability); 26.4 µM [falling, partial curve] in experiment [6] (setting [14]); 37.2 µM [falling, single point] in experiment [6] (setting [16]). In addition, the max response is 1.23% in experiment [2] (setting [8]) and -64.3% in experiment [2] (setting [9]). The z-score in experiment [6] (setting [12]) was determined as 0.304; in experiment [6] (setting [13]), 0.865; in experiment [6] (setting [15]) it was 1.2.
With `Fc1ccc(CN(C2=NCCN2)c2c(Cl)cccc2Cl)cc1`, the concentration at half-maximal activity (AC50) in experiment [1] (measured here: GFP channel) was 28.2 µM [falling, single point]; in experiment [1] (measured here: RFP channel) it was 20 µM [falling, partial curve]; in experiment [3] (setting [10]) it was 75.7 µM [falling, partial curve]; in experiment [3] (setting [11]), 95.3 µM [falling, single point]. Also, the max response was 46.3% in experiment [2] (setting [8]) and 43.3% in experiment [2] (setting [9]). Moreover, in experiment [7], the IC50 was 24.3 µM [falling, partial curve].
As for `N#Cc1c(-c2ccccc2)no[n+]1[O-]`, the concentration at half-maximal activity (AC50) in experiment [1] (measured here: GFP channel) is 35.5 µM [falling, single point]; in experiment [1] (measured here: RFP channel) it was 20 µM [falling, partial curve]; in experiment [3] (setting [10]) it was 26.9 µM [falling, full curve]; in experiment [3] (setting [11]), 30.1 µM [falling, full curve]. The max response in experiment [2] (setting [8]) was 51.8%; in experiment [2] (setting [9]), 40.5%.
Turning to `N=c1ccn2c(n1)O[C@H]1[C@@H](O)[C@@H](CO)O[C@H]12`, the half-maximal activity concentration (AC50) is 0.141 µM [falling, full curve] in experiment [1] (measured here: GFP channel); 0.141 µM [falling, full curve] in experiment [1] (measured here: RFP channel); 84.9 µM [falling, single point] in experiment [3] (setting [10]); 15.1 µM [falling, full curve] in experiment [3] (setting [11]); 1.87 µM [falling, full curve] in experiment [6] (setting [14]); 1.87 µM [falling, partial curve] in experiment [6] (setting [16]). For the same compound, the max response is 30.5% in experiment [2] (setting [8]) and 31.1% in experiment [2] (setting [9]). Further, the z-score was -0.193 in experiment [6] (setting [12]), -0.455 in experiment [6] (setting [13]) and -1.74 in experiment [6] (setting [15]).
